Experiment [1] addresses Bos taurus tubulin, polymerised into microtubules (Bos taurus). Briefly: cryo-electron tomography with subtomogram averaging; 5 uM Taxol-stabilized bovine microtubules incubated at an equimolar ratio with HsSPEF1-CH for 30 minutes in BRB80; 13-PF and 14-PF averages at 19 and 17 Å; both purified.
For experiment [2] the target is unchanged. Briefly: TIRF microscopy (microtubule dynamics assay); GMPCPP-stabilized seeds immobilised on cover glass via antibodies; 8 uM tubulin (10% AF546) with 100/400/750/1000/2000 nM HsSPEF1-CH; BRB80, 1 mM GTP, 29 mM KCl, 35°C; both purified.

Results are given in words; binding and its absence hold for the method and conditions named. Binding calls can cover weak binding; strength is not graded here. Sequences can lack the tags named with a protein.

B1: human SPEF1 CH domain (residues 1-125) fused to GFP (HsSPEF1-CH) (domain or fragment, UniProt Q9Y4P9-1 1-125)
chain: MASSVDEEALHQLYLWVDNIPLSRPKRNLSRDFSDGVLVAEVIKFYFPKMVEMHNYVPANSLQQKLSNWGHLNRKVLKRLNFSVPDDVMRKIAQCAPGVVELVLIPLRQRLEERQRRRKQGAGSL
B1: the binding result in experiment [1] and in experiment [2] was “binds” each time.

The values above are taken from publication doi:10.1101/2024.12.02.626492.
